# In patent publication US20180078649:
# Legend:
# [1] = biological target: CD38 (Homo sapiens) (UniProt P28907); test: pull-down; details: biotin aptamer precipitation, anti-CD38 western, 4 C, SELEX binding buffer, specific to MM1S versus HDLM2 lysate, protein in an extract, protein details: endogenous CD38 in MM1S RIPA cell lysate, single-stranded DNA
# [2] = biological target: CD38 (Homo sapiens) (UniProt P28907); test: flow cytometry; details: 40-mer core lost cell binding to MM1S; protein on the cell surface; label: Cy3; single-stranded DNA; variant of Aptamer#1 (full length)
sequence,measurement,setting,value
ATCCAGAGTGACGCAGCAGCCAACGTGCTTTCTACCTTATTTTCCGTCACTCTCACTCTGGACACGGTGGCTTAGT [Aptamer#1 (full length)],binding result,[1]; label: 5'-Cy3 (flow cytometry) or biotin (pulldown),binds
TCCAGAGTGACGCAGCAGCCAACGTGCTTTCTACCTTATTTTCCGTCACTCTCACTCTGGA [Aptamer#1S (truncated 61-mer)],binding result,"[1]; label: Cy3 (flow cytometry) or biotin (pulldown), variant of Aptamer#1 (full length)",binds
GCCAACGTGCTTTCTACCTTATTTTCCGTCACTCTCACTC [Aptamer#1 40-mer core],binding result,[2],no binding

# At least one result comes from cells or an extract, where the contact may be indirect. For part of these data: No signal at the amounts used counts as a negative. For part of these data: For at least one entry, the source does not settle the construct or the ends of the probe.
